Several values for one entry are separate records, joined by “and”; a condition that tells them apart may be missing. Identical values can stand only once. Out of some 320,000 compounds screened, about 740 (0.23%) were called active. The shares of active, inactive and inconclusive entries below differ from those in the screen. Calls come from the whole dose curve; as a rule, active = well fitted activation curve with a large enough effect; inconclusive = small, poorly fitted or top-dose-only effect; inactive = no such curve, though single readings can be large or run the other way. Potencies beside an inconclusive call are fits to weak or partial responses and may not hold up.
Assay: qHTS Assay for Small Molecule Inhibitors of Mitochondrial Division or Activators of Mitochondrial Fusion; note: nearly all actives have a fitted effect of over 45% in size
Settings: S. cerevisiae fusion-defective mutant growth rescue, CellTiterGlo 48 h; series mostly up to 46.1 µM
From the text: NIH Chemical Genomics Center [NCGC] NIH Molecular Libraries Probe Production centers Network [MLPCN] MLPCN Grant: MH081279-01 Assay Submitter (PI): Jodi M. Nunnari NCGC Assay Overview: The budding yeast S. cerevisiae is a powerful system to study mitochondrial fusion. Unlike other organisms, yeast cells without functional mitochondrial DNA (mtDNA) can be propagated and studied as long as they maintain a mitochondrial compartment and are provided with a fermentable carbon source. When mitochondrial fusion is blocked in yeast, mitochondrial tubules rapidly fragment and division continues unopposed. Under conditions where fusion is compromised in mammalian cells, nearly identical changes in mitochondrial structure have been observed. Thus, these findings indicate that steady state mitochondrial structure in cells is a characteristic and specific indicator of fusion activity. Mounting evidence has pointed to a connection between mitochondrial dynamics and apoptosis in mammalian cells. These studies indicate that in mammalian cells mitochondrial dynamics are more integrated into cellular processes than in yeast cells and have evolved not only to distribute the organelle but also to aid in the regulation of cellular homeostasis. Mitochondrial fusion proteins attenuate apoptosis by inhibiting the release of cytochrome c from mitochondria, in part by controlling cristae structures. Thus, small molecules that inhibit mitochondrial […] may promote apoptosis and potentially act as novel chemotherapeutics and stimulation of apoptosis has become an attractive target of anti-cancer therapies. To identify inhibitors of mitochondrial division, we exploit the growth phenotypes of mitochondrial fusion-defective mutants. The temperature sensitive fusion alleles, such as fzo1-1 and mgm1-5, cause mitochondrial membranes to fragment in cells under non-permissive conditions and cells lose mtDNA, and are unable to grow in the presence of non-fermentable carbon source glycerol. Inhibiting mitochondrial division rescues growth. We have developed and optimized a luminescence cell viability assay in 1536 well format for the identification of inhibitors in the yeast mitochondrial fusion-defective assay.
The yeast glycerol stocks where kindly supplied by the laboratory of Dr. Jodi Nunnari, University of California, Davis. All yeast glycerol stock solutions were stored in single use aliquots at -80C. The CellTiterGlo luminescence reagent, containing luciferase and luciferin, were purchased from Promega, and the reagents were stored according to manufacturer's instructions. The Buffer components for the YPEG yeast growth medium were purchased from Sigma-Aldrich (St. Louis, MO). YPEG growth medium: 1% (w/v) yeast extract, 2% (w/v) Bacto-peptone, 3% Ethanol, 3% glycerol, 0.4mM Tryptophan, 0.36mM Adenine. qHTS Assay Protocol: 1.#Dispense 2.5 ul yeast growth medium per 1536 well plate. 2.#Transfer 23 nl per well of compound to plate. 3.#Dispense 2.5 ul yeast solution at appropriate seeding density per well. 4.#Incubate for 48 hours at 37C. 5.#Dispense 5 ul of CellTiterGlow solution per well. 6.#Incubate at ambient for 10 minutes. 7.#Read using bio-luminescence protocol on Viewlux.
For `CC1=NN=C(c2ccc(N)cc2)c2cc3c(cc2C1)OCO3`, the Potency was inconclusive: 10.3 µM [activator, partial curve]. For `O=C(O)c1cc[c]([Hg][Cl])cc1`, the Potency was “inactive and inconclusive: 2.31 µM [activator, partial curve]”. In the case of `CN=C(SCc1ccccc1)c1c(O)n(C)c(=O)n(C)c1=O`, the Potency is reported as “inactive”. With `COc1cccc(OC)c1C1=NCC(=O)Nc2c1oc1ccc(Br)cc21` the Potency was inconclusive: 22.4 µM [activator, single point]. In the case of `CC(C)(C)c1nc(N2CCN(C(=O)c3ccco3)CC2)c2nnn(Cc3ccccc3Cl)c2n1`, the Potency is reported as “inactive”. In the case of `COC(=O)C1=C(c2ccc(F)cc2OCc2ccccc2)C[C@@H]2CC[C@H]1N2C(=O)NCCOc1ccccc1`, the Potency is reported as inconclusive: 11.2 µM [activator, partial curve]. For `CC(=O)[C@H]1CC[C@H]2[C@@H]3CC[C@H]4C[C@H](O)CC[C@]4(C)[C@H]3C(=O)C[C@]12C`, the Potency was inconclusive: 20.6 µM [activator, single point]. For `CC(=O)c1c(O)c(C)c(O)c(Cc2c(O)c3c(c(C(=O)/C=C/c4ccccc4)c2O)OC(C)(C)C=C3)c1O`, the Potency was inconclusive: 13 µM [activator, partial curve]. With `COC(=O)C1=C(c2cccc3c2S(=O)(=O)c2ccccc2-3)C[C@@H]2CC[C@H]1N2C(=O)N1CCc2cc(OC)c(OC)cc2C1` the Potency was “inactive”. For `CC(=O)N1CCC(N2CCCC(C(=O)c3cccc(Cl)c3)C2)CC1` (configuration not stated), the Potency was inconclusive: 7.94 µM [activator, partial curve]. For `Cc1ncc(CN2CCCC(C(=O)c3ccc(C(C)(C)C)cc3)C2)s1` (configuration not stated), the Potency was inconclusive: 11.2 µM [activator, partial curve]. With `CN(C)C(=O)Oc1cccc(-c2cn3cc(Cl)ccc3n2)c1` the Potency was inconclusive: 17.8 µM [activator, single point]. With `O=C(c1ccc(CNS(=O)(=O)c2ccc(Br)cc2)cc1)N1CCC2(CC1)OCCO2` the Potency was “inactive”. With `CCc1nc2ccccc2c(=O)n1-c1ccc2ccccc2c1` the Potency was inconclusive: 12.6 µM [activator, partial curve]. With `CCC(C)C(NC(=O)CCCNC(=O)CCC(=O)OC1O[C@H]2OC3(C)CC[C@H]4[C@H](C)CCC(C1C)C24OO3)C(=O)O` (some centres not stated) the Potency was inconclusive: 0.891 µM [activator, full curve]. In the case of `CC(=O)[C@H]1CCC2C3CC[C@H]4C[C@H](O)CC[C@]4(C)C3CC[C@@]21C` (some centres not stated), the Potency is reported as active: 5.17 µM. In the case of `Cc1ccc(C(C)C)c(OCC(=O)N2CCN(Cc3nc4cc([N+](=O)[O-])ccc4n3C)CC2)c1`, the Potency is reported as inconclusive: 14.1 µM [activator, partial curve].

— PubChem BioAssay AID485298 (National Center for Advancing Translational Sciences (NCATS), 2010)
Potency is the fitted concentration of half-maximal effect.
